Where “and” joins values, the source holds several entries; their conditions need not be identical. Equal values may be shown once. About 45 (2%) of roughly 2,000 compounds were called active.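 The calls were made as follows: active = inhibition above the screen-wide mean inhibition plus 3 SD (cut at about 44% in these data); inactive = the rest.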 This is one part of the list.
These compounds were tested against Perilipin-1 (Homo sapiens) + 1-acylglycerol-3-phosphate O-acyltransferase ABHD5 (Homo sapiens) (UniProt O60240+Q8WTS1) (assay: ABHD5-PLIN1 interaction inhibitors, pilot screen, cell lysate, split luciferase complementation, luminescence, NIH validation set (AID 493027;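 as to inhibition: 0% = DMSO wells with the 100% control not disclosed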)). Details: split G. princeps luciferase complementation, 4 h; at 7.9 µM, active compounds read high.

By UniProt entry, the sequences of proteins in these tests, tags left out. Where a name states a change or a piece, a line headed by the entry shows the natural chain unless it says otherwise.
UniProt O60240: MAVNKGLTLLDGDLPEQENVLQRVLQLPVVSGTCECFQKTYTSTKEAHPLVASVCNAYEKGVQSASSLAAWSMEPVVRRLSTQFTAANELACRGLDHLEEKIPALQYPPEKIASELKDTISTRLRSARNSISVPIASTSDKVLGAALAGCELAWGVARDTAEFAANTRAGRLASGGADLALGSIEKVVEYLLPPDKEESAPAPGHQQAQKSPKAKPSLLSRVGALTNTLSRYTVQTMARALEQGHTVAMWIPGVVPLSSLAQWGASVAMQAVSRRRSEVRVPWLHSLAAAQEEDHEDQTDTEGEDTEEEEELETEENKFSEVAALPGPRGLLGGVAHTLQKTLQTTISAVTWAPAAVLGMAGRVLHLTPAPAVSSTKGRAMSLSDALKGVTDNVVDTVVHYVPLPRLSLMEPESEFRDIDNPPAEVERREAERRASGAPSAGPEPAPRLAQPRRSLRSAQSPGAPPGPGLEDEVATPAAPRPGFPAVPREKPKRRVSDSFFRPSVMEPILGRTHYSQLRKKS
UniProt Q8WTS1: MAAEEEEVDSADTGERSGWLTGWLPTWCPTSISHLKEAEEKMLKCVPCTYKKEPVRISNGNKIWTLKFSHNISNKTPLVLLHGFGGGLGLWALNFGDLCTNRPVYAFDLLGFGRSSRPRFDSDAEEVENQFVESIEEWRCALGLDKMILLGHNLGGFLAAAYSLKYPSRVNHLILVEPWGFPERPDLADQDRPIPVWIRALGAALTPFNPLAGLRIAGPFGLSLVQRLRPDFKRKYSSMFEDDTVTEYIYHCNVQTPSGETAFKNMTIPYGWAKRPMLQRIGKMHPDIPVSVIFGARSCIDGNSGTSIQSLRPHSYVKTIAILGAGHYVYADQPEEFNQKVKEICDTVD

SMILES	inhibition
CN=C(NC#N)NCCSCc1nc[nH]c1C	inactive: -16.7%
CCC(C)NCCOCCOc1ccc(Cl)c2ccccc12 (stereo not given)	inactive: -7.14%
O=C(O)CCn1c(=S)n(CCC(=O)O)c2ccccc21	inactive: 5.57%
CC1(CC(=O)Nc2ccccc2)NC(=S)N(c2ccccc2)N1 (stereo not given)	inactive: -8.06%
CCOC(=O)Nc1ccc2c(c1)N(C(=O)CCN1CCOCC1)c1ccccc1S2	inactive: -5.86%
O=C(c1ccc(F)cc1)[C@@H]1[C@@H](C(=O)c2ccccc2)[C@@]2(C(=O)Nc3ccccc32)[C@H]2c3ccccc3C=CN12	inactive: 12.4%
C#C[C@]1(O)CC[C@H]2[C@@H]3CCc4cc(OC)ccc4[C@H]3CC[C@@]21C	inactive: -4.5%
CC1=C(C)C(=O)C(CCCCC#CCCCC#CCO)=C(C)C1=O	inactive: 20.1%
O=C(O)/C=C/c1cccc(OCc2ccccc2)c1	inactive: -13.6%
CCOCC(=O)Nc1ccccc1C(=O)N1CCOCC1	inactive: 5.18%
O=C(CN1C(=O)c2ccccc2S1(=O)=O)Nc1ccccc1	inactive: -4.41%
COc1cc2c(cc1OC)-c1nnc(C)n1C(C)(C)C2	inactive: -2.21%
CCCCCCC(=O)N(O)C1CC(=O)N(Cc2ccccc2)C1=O (stereo not given)	inactive: 6.53%
c1coc(-c2nnc3n2C2(CCCC2)Cc2ccccc2-3)c1	inactive: -0.37%
O=C(/C=C/c1ccco1)Nc1ccccc1C(=O)O	inactive: 8.22%
O=C(O)Cc1ccc(O)c(F)c1	inactive: -5.2%
CC(C)CC(=O)NC(NC(=O)CC(C)C)c1cccc([N+](=O)[O-])c1	inactive: -6.81%
O=C1CC(c2ccc(OCCCCCOc3ccc(C4CC(=O)NC4=O)cc3)cc2)C(=O)N1 (stereo not given)	inactive: 12.7%
O=C(c1ccc([N+](=O)[O-])cc1)N1CCSC1c1ccccc1Cl (stereo not given)	inactive: -8.21%
CC1(C)OC2OC(C(=O)N/N=C/c3ccccc3F)C3OC(C)(C)OC3C2O1 (stereo not given)	inactive: -9.24%
CN(C)CCCN1c2ccccc2CCc2ccc(Cl)cc21	inactive: -10.6%
COc1ccc2nc(C)cc(Nc3ccccc3O)c2c1	inactive: 10.9%
C=CCNc1nc2c(c(=O)n(C)c(=O)n2C)n1CC(=C)C	inactive: 2.69%
Clc1ccccc1CN1CCc2sccc2C1	inactive: -5.49%

SMILES	inhibition
O=C(/C=C/c1ccccc1)NC(=O)c1ccccc1O	inactive: 4.79%
COc1cc2c(cc1O)CC[C@@H]1[C@@H]2CC[C@]2(C)[C@@H](O)CC[C@@H]12	inactive: -3.48%
NS(=O)(=O)c1ccc(CCNC(=O)C2CCCN2C(=O)OCc2ccccc2)cc1 (stereo not given)	inactive: -15.1%
COC(=O)C1=C(C)NC(C)=C(C(=O)OC)C1c1ccccc1[N+](=O)[O-]	active
N/C(=N/OS(=O)(=O)c1ccc([N+](=O)[O-])cc1)c1ccncc1	inactive: -18.7%
CC1(C(=O)O)CCC(C(=O)NC2CCCCCC2)C1(C)C (stereo not given)	inactive: -4.72%
CCNC(=S)N1CCN(CCN2C(=O)c3cccc4cccc(c34)C2=O)CC1	inactive: 5.17%
CC(=O)c1cccc(NC(=O)N[C@@H](CC(C)C)C(=O)O)c1	inactive: -3.15%
CCc1cc2c3c(c(=O)oc2cc1O)CCCC3	inactive: 1.98%
O=c1[nH]cc(F)c(=O)[nH]1	inactive: -12.6%
COc1ccc(O)c(C(=O)/C=C/c2cc3ccccc3o2)c1	active: 66.9%
CCCCC[C@H](O)/C=C/[C@@H]1[C@@H](C/C=C\CCCC(=O)O)[C@H]2CO[C@@H]1C2	inactive: -7.39%
Nc1ncnc2c1ncn2C1OC(CO)C(O)C1O (stereo not given)	inactive: -8.28%
CS(=O)(=O)Oc1ccc2c(c1)O/C(=C\C=C\c1ccccc1)C2=O	active: 58.8%
COc1cccc2cc(-c3ccccc3)c(=O)oc12	inactive: -3.48%
COc1cc2nc(N3CCN(C(=O)C4CCCO4)CC3)nc(N)c2cc1OC (stereo not given)	inactive: 2.29% and inactive: -14.9%
C[C@H]1C[C@H]2[C@@H]3CCC4=CC(=O)C=C[C@]4(C)[C@@]3(Cl)[C@@H](O)C[C@]2(C)[C@@]1(O)C(=O)CO	inactive: 1.29%
Cn1cc(/C=C/C(=O)c2ccccc2)c2ccccc21	inactive: 13.9%
COc1ccc(-c2c3c(=O)n(C)c(=O)n(C)c3cn2C2CCCCC2)cc1	inactive: 6.04%
O=C(c1cc2cc(Br)ccc2o1)N1CCCC1	inactive: -0.81%
CC(=O)[C@H]1CC[C@H]2[C@@H]3CCC4=CC(=O)CC[C@]4(C)[C@H]3[C@H](O)C[C@]12C	inactive: 2.83%
CC1(C)CC(C(CC(=O)O)c2ccccc2)CCO1 (stereo not given)	inactive: -9.35%
Cc1ccc(P(=O)(CSC(=N)N)c2ccc(C)cc2)cc1	inactive: 6.44%
CC(C)OC(=O)CC12CN3CN(C1)CC(CC(=O)OC(C)C)(C3)C2=O	inactive: -2.21%

SMILES	inhibition
C[N+]12CCC(CC1)C(OC(=O)C(O)(c1ccccc1)c1ccccc1)C2 (stereo not given)	inactive: -9.73%
CC(=O)N1CCn2c3c(c4cc(C)ccc42)CCCC31 (stereo not given)	inactive: 8.46%
CSc1ccc(/C=N/N2CCN(Cc3ccc(C)cc3C)CC2)cc1	inactive: -3.53%
C[C@H](NC(=O)Nc1ccccc1F)C(=O)O	inactive: -0.07%
COc1ccc2cc[nH]c2c1	inactive: 4.17%
CC(=O)Oc1cc(C(C)C)c(OCCN(C)C)cc1C	inactive: -11.6%
CCc1cc(=O)oc2cc(OCc3nn[nH]n3)ccc12	inactive: -2.66%
O=C(/C=C/c1c[nH]c2ccccc12)c1cccc2ccccc12	inactive: 30.5%
COC1=CC(=O)CC(C)C12Oc1c(Cl)c(OC)cc(OC)c1C2=O (stereo not given)	inactive: -6.72%
CS(=O)(=O)Nc1cccc(C(=O)CC2(O)C(=O)Nc3ccc(Br)cc32)c1 (stereo not given)	inactive: -3.35%
O=C(N1CCCC1)C12CC3CC(C1)CC(C(=O)N1CCCC1)(C3)C2	inactive: 3.37%
O=c1[nH]c(=O)n([C@H]2C[C@H](O)[C@@H](CO)O2)cc1F	inactive: -8.26%
NC(N)=N/N=C/c1c(Cl)cccc1Cl	inactive: 2.92%
CC(C)Cn1c(=S)[nH]c2cc(C(=O)O)ccc2c1=O	inactive: -8.2%
NS(=O)(=O)c1cc2c(cc1Cl)NCNS2(=O)=O	inactive: -5%
Cc1coc2cc3oc(=O)c(CCC(=O)O)c(C)c3cc12	inactive: 1.17%
COc1cc(C)nc(-n2nc(C)cc2OC)n1	inactive: -6.92%
CS(=O)(=O)Nc1ccc([N+](=O)[O-])cc1Oc1ccccc1	inactive: 2.7%
CC(=O)[C@@]1(O)CC[C@H]2[C@@H]3CCC4=CC(=O)CC[C@]4(C)[C@H]3[C@@H](O)C[C@@]21C	inactive: 4.04%
COc1ccc(CN2CCCC(C(=O)c3ccc(Cl)cc3)C2)cc1Cn1cccn1 (stereo not given)	inactive: 4.96%
O=C(NCCO)c1ccc2[nH]c3ccccc3c2c1	inactive: -4.98%
COC(=O)c1[nH]c2ccc(F)cc2c1NC(=O)C1=COCCO1	inactive: -2.61%
CCOc1ccc(CC2c3cc(OCC)c(OCC)cc3CCN2C(=O)CN2CCN(C)CC2)cc1OCC (stereo not given)	inactive: -4.1%
COc1ccc2c(c1OC)C(C1c3c(cc4c(c3OC)OCO4)CCN1C)OC2=O (stereo not given)	inactive: -3.67%

In a second layout: entries from further up.
SMILES,inhibition
CC(C)OC(=O)CC12CN3CN(C1)CC(CC(=O)OC(C)C)(C3)C2=O,inactive: -2.21%
C[N+]12CCC(CC1)C(OC(=O)C(O)(c1ccccc1)c1ccccc1)C2 (stereo not given),inactive: -9.73%
CC(=O)N1CCn2c3c(c4cc(C)ccc42)CCCC31 (stereo not given),inactive: 8.46%
CSc1ccc(/C=N/N2CCN(Cc3ccc(C)cc3C)CC2)cc1,inactive: -3.53%
C[C@H](NC(=O)Nc1ccccc1F)C(=O)O,inactive: -0.07%
COc1ccc2cc[nH]c2c1,inactive: 4.17%

(further entries)

SMILES	inhibition
Cc1ccc2c(c1)c(=O)c1c3n2CCN(C(=O)CCl)C3CC1 (stereo not given)	inactive: 19.3%
CCc1cc(C(N)=S)ccn1	inactive: -8.89%
COc1cc(C(=O)OCCCN(C)C)cc(OC)c1OC	inactive: -4.53%
O=C(OCC1CCCN2CCCCC12)c1ccc2c(c1)OCO2 (stereo not given)	inactive: -3.41%
CC1(C)C(=O)OC(/C=C\c2ccccc2)C(C)(C)C1=O (stereo not given)	inactive: -0.3%
NC(=O)c1ncn([C@@H]2O[C@H](CO)[C@@H](O)[C@H]2O)c1O	inactive: 1.94%
COc1ccccc1-c1ccc(/C=C2/C=C(CC(C)C)OC2=O)o1	inactive: 6.03%
COc1ccccc1/C=C/CN1CCN(Cc2ccc(F)cc2)C(CCO)C1 (stereo not given)	inactive: -5.19%
O=C(N/N=C/c1ccc([N+](=O)[O-])o1)c1ccc(O)cc1	inactive: 3.07%
Cn1nc(-c2ccc(Cl)cc2)nc2c(=O)n(C)c(=O)nc1-2	inactive: -2.2%
COc1ccc2c3c([nH]c2c1)C1(NCC3)C(=O)Nc2ccccc21 (stereo not given)	inactive: -3.76%
CCOc1ccc(NC2OC(C)C(O)C(O)C2O)c([N+](=O)[O-])c1 (stereo not given)	inactive: -3.67%
CC1(C)CC(O)(CNCc2ccc3c(c2)OCO3)CCO1 (stereo not given)	inactive: -11.9%
O=C(O)CCCN1C(=O)NC2NC(=O)NC21 (stereo not given)	inactive: -6.31%
Cc1ccc(/C(=C\CN2CCCC2)c2ccccn2)cc1	inactive: -5.35%
O=C1C(Cc2ccccc2)NC(=S)N1c1ccccc1 (stereo not given)	inactive: -13.4%
O=C(c1ccccc1F)c1cc2c(cc1[N+](=O)[O-])OCCO2	inactive: -4.46%
Cc1ccc(S(=O)(=O)NC(=O)Nc2cc(C)ccc2F)cc1	inactive: -9.96%
O=C1OC(c2ccccc2)=C/C1=C/c1cccs1	inactive: 1.27%
CC[C@]1(O)CC2CN(CCc3c([nH]c4ccccc34)[C@@](C(=O)OC)(c3cc4c(cc3OC)N(C=O)[C@H]3[C@@](O)(C(=O)OC)[C@H](OC(C)=O)[C@]5(CC)C=CCN6CC[C@]43[C@@H]65)C2)C1 (stereo not given in full)	inactive: 4.83%
CNCCC=C1c2ccccc2CCc2ccccc21	inactive: -10.4%
CN1CCC(=C2c3ccccc3C=Cc3ccccc32)CC1	inactive: 6.02%
Cn1cc(CN(CCO)Cc2cccs2)c(-c2cccc(Cl)c2)n1	inactive: -0.84%
